Measurements from patent US20070003534A1.
Where a chain is given by its changes, count along the chain named. Results are given in words; binding and its absence hold for the method and conditions named. Some results given as binding are weak or reduced against the parent protein; the word gives no strength.

B1: SEQ ID NO 105 (protein)
chain: MKRIFSCSSSQVAVEKWNRRDQKLLEAVQRGDVGRVAALASRKSARPTKLDSNGQSPFHLAASKGLTECLTILLANGADINSKNEDGSTALHLATISCQPQCVKVLLQHGANEDAVDAENRSPLHWAASSGCASSVLLLCDHEAFLDVLDNDGRTPLMIASLGGHAAICSQLLQRGARVNVTDKDDKSALILACEKGSAEVAELLLSHGADAGAVDSLGHNALHYALRTQDKELWRLLQQALNRRRRGGHGLVQHPDHPSQASSCEPRVGSPPKNSRKVEPEEEQEEEGEERCSEEWRWKFEEEQRKVHQLEQELVRKTDECKAHAAAFSSLEEQIREQAQELGHLLVQEPGAPGNQGPGLRPEGDGMEEGCPLNLLAERIQELKKQQKALATINPTLVPKRAEELAPAEIHHEVHRKSQPEQGLPQGPSSETTGKATGQQPNTNGGQNLGLQNTEQVCAGQKERTPAPGTETAGTVGEPVGIAMNQLLLQLREELAAVWREKDAARGALSRPVLEGALGTPRAEAAAAAWEKMEARLERVLVRLDGAKMGLHVKPEVPVQGSRDGAPKAVPGCSKEQEEKKALGTRGEPLGAPGKEQALGGGLAKGQLEKEVSALRLSNSNLLEELGELGRERQRLQGELQSLTQRLHREFVPKPEAQVQLQQLRRSVGMLTEELAMEKEATDKLRRLLASQTSGLQGLWKCLPPDLVGKGNTQSTAAEPLEELQACISTLVDRHLEAQRVLARLEEENQQLRGSLAPCGEPEASLKVTASPQVAALEEDLGMLEEELRAVQATMSGKSQEICKLKQLLYQATEEVAELRAREAASLRQHEKTRGSLVAQAQAWGQELKVVLEKYNTACREMTRLRDTVAEERRRSEDLAARAAEQERQAGEMRGRSEQFEKTAELLKEKTNHLIGACRDKEAKIKELLKKLEQLSEEVLEVRGENAHLALQLQDSQKNHEEIISTYRSHLLNAARGYMEQDVYNILLRILSMQE
B2: SEQ ID NO 106 (protein)
chain: GLAKGQLEKEVSALRLSNSNLLEELGELGRERQRLQGELQSLTQRLHREFVPKPEAQVQLQQLRRSVR
B3: SEQ ID NO 107 (protein)
chain: B2 chain with V67M
B4: SEQ ID NO 108 (protein)
chain: B2 chain with R15G, Q59L, R68M
B5: SEQ ID NO 12 (protein)
chain: LRKWKGMLSRLQELRKEEETLLRLKAALHDQLNRLKVEELALQSMINSRGRTETLSSQPAR
B6: SEQ ID NO 123 (protein)
chain: ALLQVNQTELMQLDMEGMSQYFQRVIPHQFDSCPDKLVLKAYQVKYNPKKMKRLEKEYAAMKSKEMEEQIEIKRLRTENRLLKQRIGTLEKESAALADRLIQGA
B7: SEQ ID NO 13 (protein)
chain: LRKWKGMLSRLRELRKEEETLLRLKAALHDQLNRLKVEELALQSMINSRGRTE
B8: SEQ ID NO 2 (protein)
chain: VEGSALRKWKGMLSRLQELRKEEETLLRLKAALHDQLNRLKVEELALQSVINSRGRTETLSSQPAPEQLCDMSLHVDHEVTINQTT
B9: SEQ ID NO 14 (protein)
chain: LRKWKGMLSRLQGLRKEEETLLRLKAALHDQLNRLKVEELALQSMINSRGK
B10: SEQ ID NO 17 (protein)
chain: LRKWKGMLSRQQEPRKEEETLLRLKAALRDQLNRLKVEELALQSMINSRGRTETLSSQPAPEQLCDMSLHVDNEVTINQTTLKLSTRSPMEEEEV
B11: SEQ ID NO 26 (protein)
chain: LRKWKGVLSRLQELRKEEETLLRLKAALHDQLNRLKVEELALQSMINSRGRTETLSSQPAPEQLCDMSLHVDSEVTINQTHK
B12: SEQ ID NO 28 (protein)
chain: LRKWKGMLSRLQELRKEEETLLRLKAALHDQLNRLKVEELALQSMINSRGRTETLSSQPAPES
B13: SEQ ID NO 29 (protein)
chain: B12 chain with K25N
B14: SEQ ID NO 3 (protein)
chain: SALRKWKGMLSRLQELRKEEETQLRLKAALHDQLNRLKVEELALQSMINSRGRTETLSSQPAPEQLCDMSLHVDHEVTINQTTL
B15: SEQ ID NO 37 (protein)
chain: RKWKGMLSRLQELRMEEETLLRLKAALHDQLNLLKVEELALQSMINSRGRTETLSSQPAPEQLCDMSLHVDNEVTINLTTP
B16: SEQ ID NO 4 (protein)
chain: SALRKWKGMLSRLQELRKEEETQLRLKAALHDQLNRLKVEELALQSMINSRGRTETLSSQPAPEQLCDMSLHVDNEVTINQKL
B17: SEQ ID NO 45 (protein)
chain: B15 chain with M6T, E12D, M15K, L33R, M66V, L78Q, T80R
B18: SEQ ID NO 46 (peptide)
chain: KWKGMLSRLKELRKEEETLLRLKAALHDQLNRLKVEELALQSMINSRGR
B19: SEQ ID NO 5 (protein)
chain: B16 chain with R25H

The binders below were run against bait c-Jun protein from the pCMV-cJun(502-957)CBPzz vector (assay: IVV cotranslation selection, bait c-Jun).

binding, binds:
B1, B2, B3, B4, B5, B6, B7, B8, B9, B10, B11, B12, B13, B14, B15, B16, B17, B18, B19

These binders were tested against bait c-Jun protein from the pCMV-cJun(502-957)CBPzz vector (assay: pull-down on IgG agarose, C-terminal labeled prey, bait c-Jun).

binding, binds:
B2, B6, B8

The binders below were run against bait c-Jun protein from the pCMV-cJun(502-957)CBPzz vector (assay: pull-down on IgG agarose, C-terminal labeled prey, with and without bait c-Jun, SDS-PAGE fluorescence).

binding, binds:
B2, B6
